From PMC5747488
No constants are given. Whether binding was seen depends on the method and setting. In cells and extracts the contact can be indirect.

Legend:
[1] = target: T1, TNF receptor associated factor 2 (TRAF2), endogenous in ovine OFTu cells (ovine (endogenous in OFTu)); assay: co-IP; OFTu cells infected with Flag-tagged recombinant ORFV (MOI 10), harvested 12 h p.i.; reciprocal IP of total protein extracts (anti-Flag or antibody against the cellular protein), high stringency buffer with 300 mM NaCl, overnight at 4°C, protein G agarose; Western blot
T1 sequence: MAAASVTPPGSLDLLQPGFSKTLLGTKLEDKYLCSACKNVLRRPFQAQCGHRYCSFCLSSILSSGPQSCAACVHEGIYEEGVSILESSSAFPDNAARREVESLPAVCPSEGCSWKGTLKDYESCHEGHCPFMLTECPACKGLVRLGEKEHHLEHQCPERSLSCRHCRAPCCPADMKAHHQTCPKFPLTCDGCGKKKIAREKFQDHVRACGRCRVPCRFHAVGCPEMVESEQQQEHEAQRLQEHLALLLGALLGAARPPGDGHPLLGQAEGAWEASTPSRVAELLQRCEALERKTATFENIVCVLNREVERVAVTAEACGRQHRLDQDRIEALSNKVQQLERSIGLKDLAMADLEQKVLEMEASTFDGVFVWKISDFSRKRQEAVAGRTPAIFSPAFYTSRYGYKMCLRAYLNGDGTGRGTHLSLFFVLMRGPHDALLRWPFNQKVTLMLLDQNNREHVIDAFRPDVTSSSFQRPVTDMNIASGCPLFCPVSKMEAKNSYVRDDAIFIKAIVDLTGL

[2] = target: T2, TNF receptor associated factor 2 (TRAF2), endogenous in human cells (human (endogenous in HEK 293T, Saos-2)) (UniProt Q12933); assay: co-IP; HEK 293T cells transfected with pORFV119^Flag, pORFV119^LxGxE-Flag or pORFV113^Flag, harvested 12 h post transfection; reciprocal IP of total protein extracts (anti-Flag, anti-pRb or anti-TRAF2), high stringency buffer with 300 mM NaCl, overnight at 4°C, protein G agarose; Western blot
T2 sequence: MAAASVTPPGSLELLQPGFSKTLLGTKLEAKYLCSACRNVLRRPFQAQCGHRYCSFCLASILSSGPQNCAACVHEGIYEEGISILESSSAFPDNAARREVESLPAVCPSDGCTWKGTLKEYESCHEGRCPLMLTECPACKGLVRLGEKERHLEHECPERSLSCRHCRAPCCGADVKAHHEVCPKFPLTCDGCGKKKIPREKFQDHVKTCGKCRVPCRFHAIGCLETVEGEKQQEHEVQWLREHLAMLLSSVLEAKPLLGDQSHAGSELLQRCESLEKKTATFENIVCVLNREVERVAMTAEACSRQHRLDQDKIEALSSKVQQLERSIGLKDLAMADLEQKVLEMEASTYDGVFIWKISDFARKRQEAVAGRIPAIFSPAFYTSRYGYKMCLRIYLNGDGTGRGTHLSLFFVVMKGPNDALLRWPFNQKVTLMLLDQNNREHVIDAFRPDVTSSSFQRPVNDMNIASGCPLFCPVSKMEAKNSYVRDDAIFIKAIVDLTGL

Substance	binding [1]	binding [2]
ORFV113^Flag expressed by virus OV-IA82-RV113^Flag	no binding	–
ORFV113^Flag expressed from plasmid pORFV113^Flag	–	no binding
